No constants are given. Whether binding was seen depends on the method and setting. Binding seen in cells or lysates may run through a third protein. These calls come from enrichment with a bait or labelling near it, and not all partners need be listed.
Tests used:
INTS10-C2S (human) = INTS10-C2S (human) (UniProt Q9NVR2); experiment: affinity purification with mass spectrometry
2SC-INTS13ΔC (human) = 2SC-INTS13ΔC (human) (UniProt Q9NVM9); experiment: affinity purification with mass spectrometry

By UniProt entry, the sequences of proteins in these tests, tags left out. Where a name states a change or a piece, a line headed by the entry shows the natural chain unless it says otherwise. Residues count along the entry.
UniProt Q9NVR2: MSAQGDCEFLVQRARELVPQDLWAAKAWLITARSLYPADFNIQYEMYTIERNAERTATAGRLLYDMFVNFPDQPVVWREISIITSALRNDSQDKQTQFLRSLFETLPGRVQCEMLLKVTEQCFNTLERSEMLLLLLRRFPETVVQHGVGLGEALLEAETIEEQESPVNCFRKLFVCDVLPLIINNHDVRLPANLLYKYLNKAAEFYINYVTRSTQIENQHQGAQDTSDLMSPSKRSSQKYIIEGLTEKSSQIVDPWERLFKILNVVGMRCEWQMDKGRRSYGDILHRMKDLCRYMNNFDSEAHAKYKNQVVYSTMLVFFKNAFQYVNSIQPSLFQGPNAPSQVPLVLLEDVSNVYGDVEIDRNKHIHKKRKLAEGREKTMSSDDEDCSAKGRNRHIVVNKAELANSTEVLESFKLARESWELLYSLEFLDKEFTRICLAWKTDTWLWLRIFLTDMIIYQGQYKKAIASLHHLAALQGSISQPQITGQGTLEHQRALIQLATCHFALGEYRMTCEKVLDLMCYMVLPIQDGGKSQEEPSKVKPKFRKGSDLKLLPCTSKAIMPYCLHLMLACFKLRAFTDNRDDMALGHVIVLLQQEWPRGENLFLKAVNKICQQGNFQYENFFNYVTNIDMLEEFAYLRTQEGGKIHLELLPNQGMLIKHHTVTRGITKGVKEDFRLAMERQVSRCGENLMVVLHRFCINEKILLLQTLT
UniProt Q9NVM9, residues 1-648: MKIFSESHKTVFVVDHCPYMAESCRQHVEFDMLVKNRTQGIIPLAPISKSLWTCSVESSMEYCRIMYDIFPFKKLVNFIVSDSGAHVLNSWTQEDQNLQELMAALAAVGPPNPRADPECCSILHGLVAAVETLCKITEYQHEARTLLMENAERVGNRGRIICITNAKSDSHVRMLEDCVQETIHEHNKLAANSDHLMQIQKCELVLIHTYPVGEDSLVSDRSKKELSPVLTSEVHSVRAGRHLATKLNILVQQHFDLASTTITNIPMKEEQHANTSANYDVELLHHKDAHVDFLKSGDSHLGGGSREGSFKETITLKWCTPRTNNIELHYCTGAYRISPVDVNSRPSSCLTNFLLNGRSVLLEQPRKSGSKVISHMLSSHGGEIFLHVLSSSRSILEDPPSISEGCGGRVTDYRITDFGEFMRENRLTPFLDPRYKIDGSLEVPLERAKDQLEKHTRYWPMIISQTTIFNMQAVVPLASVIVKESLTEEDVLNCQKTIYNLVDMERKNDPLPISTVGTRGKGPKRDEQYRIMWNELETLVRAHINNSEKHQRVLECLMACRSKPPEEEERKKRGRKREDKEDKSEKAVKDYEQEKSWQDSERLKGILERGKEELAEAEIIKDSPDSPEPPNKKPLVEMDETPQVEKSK

binding (INTS10-C2S (human)): binds | binding (2SC-INTS13ΔC (human)): binds
B1: ICE2 (protein, UniProt Q659A1 1-982)
chain: MSSKMVISEPGLNWDISPKNGLKTFFSRENYKDHSMAPSLKELRVLSNRRIGENLNASASSVENEPAVSSATQAKEKVKTTIGMVLLPKPRVPYPRFSRFSQREQRSYVDLLVKYAKIPANSKAVGINKNDYLQYLDMKKHVNEEVTEFLKFLQNSAKKCAQDYNMLSDDARLFTEKILRACIEQVKKYSEFYTLHEVTSLMGFFPFRVEMGLKLEKTLLALGSVKYVKTVFPSMPIKLQLSKDDIATIETSEQTAEAMHYDISKDPNAEKLVSRYHPQIALTSQSLFTLLNNHGPTYKEQWEIPVCIQVIPVAGSKPVKVIYINSPLPQKKMTMRERNQIFHEVPLKFMMSKNTSVPVSAVFMDKPEEFISEMDMSCEVNECRKIESLENLYLDFDDDVTELETFGVTTTKVSKSPSPASTSTVPNMTDAPTAPKAGTTTVAPSAPDISANSRSLSQILMEQLQKEKQLVTGMDGGPEECKNKDDQGFESCEKVSNSDKPLIQDSDLKTSDALQLENSQEIETSNKNDMTIDILHADGERPNVLENLDNSKEKTVGSEAAKTEDTVLCSSDTDEECLIIDTECKNNSDGKTAVVGSNLSSRPASPNSSSGQASVGNQTNTACSPEESCVLKKPIKRVYKKFDPVGEILKMQDELLKPISRKVPELPLMNLENSKQPSVSEQLSGPSDSSSWPKSGWPSAFQKPKGRLPYELQDYVEDTSEYLAPQEGNFVYKLFSLQDLLLLVRCSVQRIETRPRSKKRKKIRRQFPVYVLPKVEYQACYGVEALTESELCRLWTESLLHSNSSFYVGHIDAFTSKLFLLEEITSEELKEKLSALKISNLFNILQHILKKLSSLQEGSYLLSHAAEDSSLLIYKASDGKVTRTAYNLYKTHCGLPGVPSSLSVPWVPLDPSLLLPYHIHHGRIPCTFPPKSLDTTTQQKIGGTRMPTRSHRNPVSMETKSSCLPAQQVETEGVAPHKRKIT

From doi:10.1101/2024.01.24.576984
